Assay results published in US4479941A, “Renin inhibitory peptides having PHE^13 delection” (Merck & Co., Inc., priority 1982, dated 1984).
For at least one compound, name, drawing or mass did not settle the structure.

Sequences of proteins named here, by UniProt entry; tags and fusion partners are left off. Residues count along the entry.
UniProt A0A287APG1, 67-407: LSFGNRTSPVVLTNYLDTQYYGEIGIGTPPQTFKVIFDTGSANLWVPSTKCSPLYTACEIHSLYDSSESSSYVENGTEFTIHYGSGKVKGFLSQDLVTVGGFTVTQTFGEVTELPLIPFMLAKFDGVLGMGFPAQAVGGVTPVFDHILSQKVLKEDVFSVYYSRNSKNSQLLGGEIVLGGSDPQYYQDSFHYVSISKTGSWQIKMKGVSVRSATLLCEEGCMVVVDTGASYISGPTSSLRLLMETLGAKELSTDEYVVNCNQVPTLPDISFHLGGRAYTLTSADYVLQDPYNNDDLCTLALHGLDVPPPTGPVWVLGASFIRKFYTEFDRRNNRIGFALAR

Target: hog kidney renin (Sus scrofa, UniProt A0A287APG1)
Assay: Hog renin inhibition
Format: biochemical
Settings: pH 7.3, read-out: I50 (concentration of peptide inhibitor necessary to produce 50% inhibition of renin activity)
Method: An assay was carried out in order to determine the inhibitory potency of the peptides of the present invention.

| SMILES | IC50 [nM] |
| --- | --- |
| CC(C)C[C@H](NC(=O)C[C@H](O)[C@H](CC(C)C)NC(=O)[C@H](Cc1c[nH]cn1)NC(=O)[C@H](Cc1ccccc1)NC(=O)OC(C)(C)C)C(=O)NC(Cc1ccccc1)c1ccccc1 (single isomer, unassigned) [BOC--Phe--His--Sta--Leu--(-)-1,2-diphenylethylamide] [BOC--Phe-His-Sta-Leu-(-)-1,2-diphenylethylamide] | 23 |
| CC(C)C[C@H](NC(=O)C[C@H](O)[C@H](CC(C)C)NC(=O)[C@H](Cc1c[nH]cn1)NC(=O)[C@H](Cc1ccccc1)NC(=O)OC(C)(C)C)C(=O)NC(Cc1ccccc1)c1ccccc1 (single isomer, unassigned) [BOC--Phe--His--Sta--Leu--(+)-1,2-diphenylethylamide] [BOC^2 --Phe-His-Sta-Leu-(+)^3 -1,2-diphenylethylamide] | 6.7 |
